Reference: paper PMC10954485
These are yes or no findings as the source states them, for the method shown. In cells and extracts the contact can be indirect. Some results given as binding are weak or reduced against the parent protein; the word gives no strength. Values belong to the substance of their own block, whether it stands above or below them.

By UniProt entry, the sequences of proteins in these tests, tags left out. Where a name states a change or a piece, a line headed by the entry shows the natural chain unless it says otherwise. Chains listed by the source or under a name are the forms on record and can include a tag or linker. Residues count along the entry.
UniProt Q13586: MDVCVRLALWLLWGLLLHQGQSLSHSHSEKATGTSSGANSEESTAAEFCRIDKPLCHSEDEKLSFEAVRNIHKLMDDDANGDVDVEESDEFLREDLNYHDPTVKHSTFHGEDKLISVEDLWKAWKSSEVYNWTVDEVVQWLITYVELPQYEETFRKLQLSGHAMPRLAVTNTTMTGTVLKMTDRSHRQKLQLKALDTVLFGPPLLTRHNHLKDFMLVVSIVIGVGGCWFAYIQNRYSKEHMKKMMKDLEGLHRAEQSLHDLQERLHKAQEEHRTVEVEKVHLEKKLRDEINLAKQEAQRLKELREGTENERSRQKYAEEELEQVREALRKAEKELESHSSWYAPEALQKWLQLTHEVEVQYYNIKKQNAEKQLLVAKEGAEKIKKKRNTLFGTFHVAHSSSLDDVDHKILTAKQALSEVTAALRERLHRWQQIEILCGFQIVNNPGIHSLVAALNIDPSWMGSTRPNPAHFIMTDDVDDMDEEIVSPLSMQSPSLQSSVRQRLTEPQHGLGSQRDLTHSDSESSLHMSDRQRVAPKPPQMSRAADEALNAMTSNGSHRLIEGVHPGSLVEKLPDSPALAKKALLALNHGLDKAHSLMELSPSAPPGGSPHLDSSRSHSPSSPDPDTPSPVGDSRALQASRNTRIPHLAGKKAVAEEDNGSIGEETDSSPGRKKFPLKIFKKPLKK
STIM1-GFP (human STIM1, NP_003147.2): residues 23-685 of Q13586
STIM1(Δ551–685)-GFP: residues 23-550 of Q13586
STIM1(382AIAAAA387)-GFP (Q13586, form named): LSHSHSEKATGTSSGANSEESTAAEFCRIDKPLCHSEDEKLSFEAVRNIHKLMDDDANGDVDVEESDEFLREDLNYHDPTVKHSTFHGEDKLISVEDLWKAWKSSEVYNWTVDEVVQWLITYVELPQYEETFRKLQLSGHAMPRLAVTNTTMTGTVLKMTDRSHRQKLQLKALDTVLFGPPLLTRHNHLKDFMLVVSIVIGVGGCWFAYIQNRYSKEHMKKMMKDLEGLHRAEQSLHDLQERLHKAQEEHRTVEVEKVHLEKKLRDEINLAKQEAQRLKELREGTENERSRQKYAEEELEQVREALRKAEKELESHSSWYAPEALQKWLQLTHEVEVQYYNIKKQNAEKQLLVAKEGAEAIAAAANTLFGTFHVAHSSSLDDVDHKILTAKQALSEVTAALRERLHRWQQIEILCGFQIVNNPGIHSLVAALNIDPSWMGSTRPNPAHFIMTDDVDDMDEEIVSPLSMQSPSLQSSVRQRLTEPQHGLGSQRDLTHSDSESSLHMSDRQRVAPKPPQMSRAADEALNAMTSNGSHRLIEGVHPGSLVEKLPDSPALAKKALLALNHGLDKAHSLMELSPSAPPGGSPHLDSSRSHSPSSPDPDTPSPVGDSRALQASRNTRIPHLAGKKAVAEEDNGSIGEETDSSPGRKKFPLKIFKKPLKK
UniProt Q92621: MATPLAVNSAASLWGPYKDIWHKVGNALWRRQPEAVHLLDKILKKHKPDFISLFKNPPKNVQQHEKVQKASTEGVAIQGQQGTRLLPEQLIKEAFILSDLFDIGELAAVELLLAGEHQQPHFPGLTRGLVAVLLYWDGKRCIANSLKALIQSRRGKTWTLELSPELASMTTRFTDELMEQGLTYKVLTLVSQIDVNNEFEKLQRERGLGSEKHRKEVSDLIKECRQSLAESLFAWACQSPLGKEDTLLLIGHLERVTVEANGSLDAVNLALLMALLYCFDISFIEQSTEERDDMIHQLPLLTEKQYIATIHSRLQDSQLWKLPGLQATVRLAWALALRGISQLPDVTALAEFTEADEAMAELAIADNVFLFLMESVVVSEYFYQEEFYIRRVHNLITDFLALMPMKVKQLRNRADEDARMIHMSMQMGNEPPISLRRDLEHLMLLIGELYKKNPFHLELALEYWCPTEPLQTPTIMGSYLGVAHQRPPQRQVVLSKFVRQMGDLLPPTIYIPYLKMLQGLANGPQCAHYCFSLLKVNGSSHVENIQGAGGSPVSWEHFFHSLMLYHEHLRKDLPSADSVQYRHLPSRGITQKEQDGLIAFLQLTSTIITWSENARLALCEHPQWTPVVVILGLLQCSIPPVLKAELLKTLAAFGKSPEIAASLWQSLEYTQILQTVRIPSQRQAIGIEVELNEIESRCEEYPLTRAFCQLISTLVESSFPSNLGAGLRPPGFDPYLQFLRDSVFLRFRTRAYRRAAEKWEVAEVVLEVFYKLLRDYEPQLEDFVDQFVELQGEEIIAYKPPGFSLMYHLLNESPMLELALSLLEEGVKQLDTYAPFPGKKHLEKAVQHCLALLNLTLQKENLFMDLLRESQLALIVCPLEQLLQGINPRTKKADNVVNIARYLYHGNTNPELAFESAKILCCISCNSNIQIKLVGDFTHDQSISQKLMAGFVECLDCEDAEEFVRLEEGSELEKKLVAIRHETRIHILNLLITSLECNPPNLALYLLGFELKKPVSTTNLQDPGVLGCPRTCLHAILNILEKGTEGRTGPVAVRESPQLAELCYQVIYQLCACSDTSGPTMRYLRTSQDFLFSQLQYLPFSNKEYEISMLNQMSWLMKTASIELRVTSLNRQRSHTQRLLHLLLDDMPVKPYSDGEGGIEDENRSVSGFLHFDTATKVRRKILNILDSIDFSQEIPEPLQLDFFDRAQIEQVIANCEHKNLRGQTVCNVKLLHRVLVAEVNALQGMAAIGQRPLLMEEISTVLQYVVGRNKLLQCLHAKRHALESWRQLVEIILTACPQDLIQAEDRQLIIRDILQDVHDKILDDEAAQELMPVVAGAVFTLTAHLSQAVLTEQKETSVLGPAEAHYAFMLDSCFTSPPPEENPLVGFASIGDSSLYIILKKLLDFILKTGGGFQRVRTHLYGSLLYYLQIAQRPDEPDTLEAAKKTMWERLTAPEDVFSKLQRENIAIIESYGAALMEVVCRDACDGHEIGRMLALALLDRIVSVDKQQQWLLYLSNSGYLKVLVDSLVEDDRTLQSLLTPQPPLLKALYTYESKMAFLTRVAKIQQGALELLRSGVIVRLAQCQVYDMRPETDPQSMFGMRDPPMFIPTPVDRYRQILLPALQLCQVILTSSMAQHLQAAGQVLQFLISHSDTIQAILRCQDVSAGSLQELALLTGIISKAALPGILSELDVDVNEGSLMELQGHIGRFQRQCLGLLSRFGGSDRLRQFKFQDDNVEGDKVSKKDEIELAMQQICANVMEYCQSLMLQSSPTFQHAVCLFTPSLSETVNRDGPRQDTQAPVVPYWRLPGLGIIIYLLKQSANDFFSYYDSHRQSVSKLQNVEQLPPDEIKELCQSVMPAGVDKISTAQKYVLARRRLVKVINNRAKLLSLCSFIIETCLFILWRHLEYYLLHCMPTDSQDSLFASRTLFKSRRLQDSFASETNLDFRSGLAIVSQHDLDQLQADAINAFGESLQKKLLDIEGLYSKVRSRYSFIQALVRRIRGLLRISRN
UniProt Q9BXW9: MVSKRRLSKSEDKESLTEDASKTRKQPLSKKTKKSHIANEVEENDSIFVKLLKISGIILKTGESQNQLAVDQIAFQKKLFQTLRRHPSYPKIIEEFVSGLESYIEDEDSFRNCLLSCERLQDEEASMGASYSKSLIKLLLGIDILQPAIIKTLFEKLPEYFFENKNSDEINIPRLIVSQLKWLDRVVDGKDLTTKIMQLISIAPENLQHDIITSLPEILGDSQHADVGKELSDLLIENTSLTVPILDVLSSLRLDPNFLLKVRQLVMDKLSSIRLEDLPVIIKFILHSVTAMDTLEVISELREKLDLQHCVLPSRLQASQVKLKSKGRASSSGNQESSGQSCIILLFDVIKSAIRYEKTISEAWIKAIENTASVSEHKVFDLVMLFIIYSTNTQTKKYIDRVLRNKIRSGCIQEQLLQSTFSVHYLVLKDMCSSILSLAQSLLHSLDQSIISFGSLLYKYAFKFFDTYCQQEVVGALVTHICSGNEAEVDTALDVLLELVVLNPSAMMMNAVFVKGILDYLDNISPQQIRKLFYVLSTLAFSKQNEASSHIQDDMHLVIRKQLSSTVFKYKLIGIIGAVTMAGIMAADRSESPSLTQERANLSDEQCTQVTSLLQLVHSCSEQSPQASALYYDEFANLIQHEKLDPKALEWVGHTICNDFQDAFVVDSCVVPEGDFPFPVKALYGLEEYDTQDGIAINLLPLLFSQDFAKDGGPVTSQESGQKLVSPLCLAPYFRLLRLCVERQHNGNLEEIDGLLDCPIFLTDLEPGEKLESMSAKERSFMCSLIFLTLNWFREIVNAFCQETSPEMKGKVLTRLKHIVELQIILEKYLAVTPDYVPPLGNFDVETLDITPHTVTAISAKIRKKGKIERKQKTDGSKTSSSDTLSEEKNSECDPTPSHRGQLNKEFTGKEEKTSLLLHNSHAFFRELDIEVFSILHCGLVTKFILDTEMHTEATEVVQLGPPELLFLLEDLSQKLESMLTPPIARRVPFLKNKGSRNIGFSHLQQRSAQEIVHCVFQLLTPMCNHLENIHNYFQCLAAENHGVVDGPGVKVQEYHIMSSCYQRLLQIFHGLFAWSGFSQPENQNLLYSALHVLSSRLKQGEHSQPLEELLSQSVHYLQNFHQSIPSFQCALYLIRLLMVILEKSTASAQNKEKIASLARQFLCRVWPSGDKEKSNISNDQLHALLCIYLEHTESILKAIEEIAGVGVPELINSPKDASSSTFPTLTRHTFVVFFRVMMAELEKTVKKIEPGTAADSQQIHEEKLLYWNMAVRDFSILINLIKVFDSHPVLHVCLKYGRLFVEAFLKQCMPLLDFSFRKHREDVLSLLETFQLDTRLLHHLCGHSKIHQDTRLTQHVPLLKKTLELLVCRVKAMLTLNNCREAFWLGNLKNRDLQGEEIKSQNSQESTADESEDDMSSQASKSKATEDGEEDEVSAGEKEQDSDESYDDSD
UniProt Q9NVI1: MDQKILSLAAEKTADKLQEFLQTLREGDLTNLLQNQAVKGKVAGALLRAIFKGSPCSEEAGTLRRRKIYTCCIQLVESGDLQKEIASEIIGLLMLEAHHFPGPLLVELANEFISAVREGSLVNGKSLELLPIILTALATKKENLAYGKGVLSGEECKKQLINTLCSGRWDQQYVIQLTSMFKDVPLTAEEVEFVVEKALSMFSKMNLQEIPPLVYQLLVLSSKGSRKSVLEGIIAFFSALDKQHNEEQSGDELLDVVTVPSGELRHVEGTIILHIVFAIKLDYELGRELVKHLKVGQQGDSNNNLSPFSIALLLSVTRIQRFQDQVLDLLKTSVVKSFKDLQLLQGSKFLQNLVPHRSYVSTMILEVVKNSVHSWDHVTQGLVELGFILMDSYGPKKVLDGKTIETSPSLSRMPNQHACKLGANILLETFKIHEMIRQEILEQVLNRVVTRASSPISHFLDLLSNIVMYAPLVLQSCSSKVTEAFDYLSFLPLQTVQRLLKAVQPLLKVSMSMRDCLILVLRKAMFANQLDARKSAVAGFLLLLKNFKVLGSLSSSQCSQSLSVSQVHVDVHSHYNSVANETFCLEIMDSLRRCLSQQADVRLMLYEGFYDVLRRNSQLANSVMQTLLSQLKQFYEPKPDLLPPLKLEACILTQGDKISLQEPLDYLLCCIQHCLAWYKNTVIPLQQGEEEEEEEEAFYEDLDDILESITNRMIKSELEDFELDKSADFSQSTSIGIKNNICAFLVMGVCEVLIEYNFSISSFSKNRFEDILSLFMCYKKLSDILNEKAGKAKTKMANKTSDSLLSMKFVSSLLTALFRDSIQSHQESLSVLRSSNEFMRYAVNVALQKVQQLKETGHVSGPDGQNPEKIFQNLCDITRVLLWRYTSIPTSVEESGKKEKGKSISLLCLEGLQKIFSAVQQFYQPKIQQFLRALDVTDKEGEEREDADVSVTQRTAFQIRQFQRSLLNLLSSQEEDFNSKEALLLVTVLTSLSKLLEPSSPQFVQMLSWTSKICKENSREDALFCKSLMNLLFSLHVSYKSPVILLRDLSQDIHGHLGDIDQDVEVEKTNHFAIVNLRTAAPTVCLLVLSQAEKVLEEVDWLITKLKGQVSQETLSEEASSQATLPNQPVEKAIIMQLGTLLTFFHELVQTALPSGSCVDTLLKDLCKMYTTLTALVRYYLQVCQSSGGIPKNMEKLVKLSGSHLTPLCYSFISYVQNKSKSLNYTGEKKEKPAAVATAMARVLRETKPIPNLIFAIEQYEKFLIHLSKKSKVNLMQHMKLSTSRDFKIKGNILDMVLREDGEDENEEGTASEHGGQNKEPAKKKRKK

Columns and labels:
[1] = target: endogenous STIM1 (human (endogenous in HEK293)) (UniProt Q13586); test: co-IP; endogenous STIM1 immunoprecipitated with anti-STIM1 antibody and Dynabeads Protein A from 2.5 mg HEK293 whole cell lysate (10 mM NaPO4 pH 7.0, 140 mM NaCl, 0.05% Triton X-100, overnight at 4°C), immunoblot; normal rabbit IgG as control
[2] = target: endogenous STIM1 (human (endogenous in HEK293)) (UniProt Q13586); test: proximity ligation; Duolink PLA in methanol-fixed HEK293 cells, rabbit anti-STIM1 with a mouse antibody against the partner, endogenous proteins; single antibodies as negative controls
[3] = target: STIM1-GFP (human STIM1, NP_003147.2) (human) (UniProt Q13586); test: co-IP; GFP-tagged STIM1 pulled down with GFP-Trap beads from 1 mg whole cell lysate of STIM1-KO HEK293 cells (for XPO1: 0.25 mg nuclear lysate), co-precipitated endogenous proteins by immunoblot; GFP only as negative control
[4] = target: STIM1-GFP (human STIM1, NP_003147.2) (human) (UniProt Q13586); test: proximity ligation; Duolink PLA in methanol-fixed cells expressing GFP-tagged STIM1 variants, rabbit anti-FANCD2 and sheep anti-GFP, red dots per nucleus
[5] = target: STIM1(382AIAAAA387)-GFP (human) (UniProt Q13586); test: as above
[6] = target: STIM1(Δ551–685)-GFP (human) (UniProt Q13586); test: as above

Substance: IPO8 (from UniProt O15397 1-1037)
- binding [2]: binds
- binding [3]: binds

Substance: XPO1 (from UniProt O14980 1-1071)
- binding [3]: binds

Substance: nuclear pore complex protein NUP205 (from UniProt Q92621 1-2012)
- binding [1]: binds
- binding [2]: binds
- binding [3]: binds

The remaining lines, values ahead:

- binding [1]: binds
- binding [2]: binds
- binding [3]: binds
- binding [4]: binds
- binding [5]: binds
- binding [6]: binds
Substance: Fanconi anemia (FA) protein FANCD2 (from UniProt Q9BXW9 1-1451)

- binding [1]: binds
- binding [2]: binds
- binding [3]: binds
Substance: FANCI (from UniProt Q9NVI1 1-1328)

- binding [3]: binds
Substance: TELO2 (from UniProt Q9Y4R8 1-837)

- binding [3]: binds weakly
Substance: KPNB1 (from UniProt Q14974 1-876)
